PubChem BioAssay AID1159578 – Peter MacCallum Cancer Centre | 2015

- Assay: 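siRNA pools altering how lymphatic endothelial cells close a scratch wound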 (primary screen)
- System: human lymphatic endothelial cells
- Reagents: siRNA pool against human genes, 40 nM
- Timing: 48 h after transfection
- Detection: 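Cells stained with dye and imaged after a scratch; covered wound area and nuclei counted, duplicates averaged, migration set against mock wells and turned into a robust z-score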
- Scale: migration robust z-score: higher = faster migration into the scratch; nuclei per well: higher = more cells in the well
- Active means: 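Pools averaging fewer than 3300 nuclei are never called; remaining pools count as changed when migration robust z lies outside -2 to 2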
- Meaning of the calls: active = migration changed; inactive = no migration change, or too few cells
The deposit covers about 18,000 reagents; below is a part drawn at random. Over the whole deposit, about 1,030 (5.7%) were called active. 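Inactive calls also include pools with fewer than 3300 nuclei, whose migration was not assessed.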 Raw values are not corrected between plates. Unmarked entries are inactive. Further read-outs or replicates are left out here.

gene	PubChem SID	migration robust z-score	migration class with cell-count check	nuclei per well, duplicate mean
WHAMM	SID255362586	-2.25 (active)	migration z below -2; enough cells	5510
ADRB3	SID255348216	-0.36	migration z between -2 and 2; enough cells	5916
ETV2	SID255349571	0.5	migration z between -2 and 2; enough cells	5768
EVA1A	SID255361213	0.13	migration z between -2 and 2; enough cells	7150
SREBF2	SID255352623	0.18	migration z between -2 and 2; enough cells	7003
CABLES1	SID255361952	-0.49	migration z between -2 and 2; enough cells	4863
LRIG1	SID255356617	1.99	migration z between -2 and 2; enough cells	6117
NME7	SID255357216	-1.4	migration z between -2 and 2; enough cells	4784
MVP	SID255354700	-0.16	migration z between -2 and 2; enough cells	4549
POU5F1	SID255351710	0	migration z between -2 and 2; enough cells	4896
PCDHGC5	SID255358989	-0.13	migration z between -2 and 2; enough cells	4944
DPYS	SID255349360	-0.43	migration z between -2 and 2; enough cells	5798
GSS	SID255350069	-2.28 (active)	migration z below -2; enough cells	5097
RAB28	SID255354221	1.53	migration z between -2 and 2; enough cells	6066
OR10H5	SID255364785	0.8	migration z between -2 and 2; enough cells	5012
SNAPC2	SID255352538	0.39	migration z between -2 and 2; enough cells	6367
UBA52	SID255353022	-1.97	migration z between -2 and 2; enough cells	4213
F13A1	SID255349605	1.48	migration z between -2 and 2; enough cells	6982
TENM1	SID255354872	0.52	migration z between -2 and 2; enough cells	5910
SMU1	SID255358525	0.32	migration z between -2 and 2; enough cells	5201
ZNF878	SID255366202	-0.26	migration z between -2 and 2; enough cells	5705
SART3	SID255354510	0.55	migration z between -2 and 2; enough cells	4957
HSPB9	SID255362114	-0.4	migration z between -2 and 2; enough cells	4464
G6PD	SID255349780	-1.55	under 3300 nuclei; migration not judged	3128
TSSK6	SID255361150	-2.23	under 3300 nuclei; migration not judged	2031
TMEM179	SID255365469	-0.09	migration z between -2 and 2; enough cells	5664
PYHIN1	SID255363424	0.12	migration z between -2 and 2; enough cells	5916
SEPHS2	SID255355882	0.32	migration z between -2 and 2; enough cells	6350
C1QTNF9B	SID255365463	-1.24	migration z between -2 and 2; enough cells	6565
TVP23B	SID255357424	1.3	migration z between -2 and 2; enough cells	6885
BAD	SID255348499	0.1	migration z between -2 and 2; enough cells	5060
RUNDC3A	SID255355428	0.41	migration z between -2 and 2; enough cells	5874
SYT3	SID255361274	0.1	migration z between -2 and 2; enough cells	6550
DCLRE1A	SID255354681	0.73	migration z between -2 and 2; enough cells	5512
CDCA4	SID255358368	0.22	migration z between -2 and 2; enough cells	6040
TESMIN	SID255354428	0.57	migration z between -2 and 2; enough cells	6062
TBX19	SID255354030	1.02	migration z between -2 and 2; enough cells	6100

Continued; the last 8 above are carried over.
gene	PubChem SID	migration robust z-score	migration class with cell-count check	nuclei per well, duplicate mean
TVP23B	SID255357424	1.3	migration z between -2 and 2; enough cells	6885
BAD	SID255348499	0.1	migration z between -2 and 2; enough cells	5060
RUNDC3A	SID255355428	0.41	migration z between -2 and 2; enough cells	5874
SYT3	SID255361274	0.1	migration z between -2 and 2; enough cells	6550
DCLRE1A	SID255354681	0.73	migration z between -2 and 2; enough cells	5512
CDCA4	SID255358368	0.22	migration z between -2 and 2; enough cells	6040
TESMIN	SID255354428	0.57	migration z between -2 and 2; enough cells	6062
TBX19	SID255354030	1.02	migration z between -2 and 2; enough cells	6100
ALDOA	SID255348269	-0.55	under 3300 nuclei; migration not judged	3120
ZNF585B	SID255361996	-0.3	migration z between -2 and 2; enough cells	4466
CRELD1	SID255360140	-1.2	migration z between -2 and 2; enough cells	4084
SLC25A46	SID255361889	0.42	migration z between -2 and 2; enough cells	6608
HIF3A	SID255359903	-1.22	migration z between -2 and 2; enough cells	4345
IGIP	SID255365999	-2.02 (active)	migration z below -2; enough cells	5767
RCOR3	SID255358837	-0.67	migration z between -2 and 2; enough cells	5471
UBB	SID255353023	-9.15	under 3300 nuclei; migration not judged	482
SPINT4	SID255365690	0.16	migration z between -2 and 2; enough cells	5530
XAGE5	SID255363910	0.5	migration z between -2 and 2; enough cells	5489
MT1E	SID255351047	1.04	migration z between -2 and 2; enough cells	6176
B3GNT9	SID255361495	-0.34	migration z between -2 and 2; enough cells	5770
ZNF133	SID255353234	-1.53	migration z between -2 and 2; enough cells	6928
EHMT1	SID255360483	-0.32	migration z between -2 and 2; enough cells	5800
WNT2B	SID255353143	-0.54	migration z between -2 and 2; enough cells	6048
CD93	SID255355873	-0.2	migration z between -2 and 2; enough cells	5016
TNNC2	SID255352911	-0.26	migration z between -2 and 2; enough cells	7142
RAB11A	SID255353796	0.03	migration z between -2 and 2; enough cells	7164
KANSL1	SID255364732	-2.4 (active)	migration z below -2; enough cells	4422
RFFL	SID255362433	1.17	migration z between -2 and 2; enough cells	6016
